Measured values as given in article PMC5915078.
The exact form of at least one protein or probe is not confirmed. For part of these data: No signal at the amounts used counts as a negative. For part of these data: Weaker means in comparison with the reference protein, sequence or condition of that experiment.

Protein sequences, listed by entry. Tags and fused reporters are not part of them. Residues count along the entry.
UniProt Q15717, whole entry: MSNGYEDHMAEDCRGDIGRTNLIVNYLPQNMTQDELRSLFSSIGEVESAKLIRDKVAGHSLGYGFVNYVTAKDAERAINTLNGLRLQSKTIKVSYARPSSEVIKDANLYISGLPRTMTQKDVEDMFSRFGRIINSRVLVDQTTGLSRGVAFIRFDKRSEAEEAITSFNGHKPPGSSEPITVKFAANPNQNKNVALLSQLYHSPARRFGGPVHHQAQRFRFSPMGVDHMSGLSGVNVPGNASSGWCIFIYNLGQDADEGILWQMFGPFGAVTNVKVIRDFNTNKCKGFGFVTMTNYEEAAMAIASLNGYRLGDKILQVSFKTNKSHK
UniProt Q15717, 106-243: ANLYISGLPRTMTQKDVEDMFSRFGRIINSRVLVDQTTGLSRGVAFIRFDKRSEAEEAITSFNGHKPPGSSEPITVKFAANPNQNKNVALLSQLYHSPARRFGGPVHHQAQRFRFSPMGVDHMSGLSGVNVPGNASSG
UniProt Q15717, 106-186: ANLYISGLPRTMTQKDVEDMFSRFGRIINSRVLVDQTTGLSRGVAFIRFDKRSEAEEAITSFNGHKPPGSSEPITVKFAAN
UniProt Q15717, 20-98: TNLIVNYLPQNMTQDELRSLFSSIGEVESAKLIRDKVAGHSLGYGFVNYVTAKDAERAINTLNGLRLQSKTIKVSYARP
UniProt Q15717, 187-322: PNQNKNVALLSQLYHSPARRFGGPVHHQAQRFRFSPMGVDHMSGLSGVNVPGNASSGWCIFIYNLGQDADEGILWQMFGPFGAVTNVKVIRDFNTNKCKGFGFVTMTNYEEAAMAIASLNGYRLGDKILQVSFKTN

Assays:
Assay in all cases: EMSA
GST-HuR wild type = GST-HuR wild type (UniProt Q15717); settings: EMSA: 10 mM HEPES pH 7.6, 3 mM MgCl2, 40 mM KCl, 2 mM DTT, 5% glycerol, 0.5% Igepal, 30 min on ice, 6% native PAGE in TBE, recombinant protein, label: 32P-UTP body label, probe letters rebuilt from the primers and the genome, part of a longer molecule
GST-HuR-RRM2+hinge = GST-HuR-RRM2+hinge (UniProt Q15717); settings: 1.0 ug protein; EMSA: 10 mM HEPES pH 7.6, 3 mM MgCl2, 40 mM KCl, 2 mM DTT, 5% glycerol, 0.5% Igepal, 30 min on ice, 6% native PAGE in TBE; recombinant protein; protein details: GST; label: 32P-UTP body label; probe letters rebuilt from the primers and the genome; part of a longer molecule
GST-HuR-RRM2 = GST-HuR-RRM2 (UniProt Q15717); settings: 1.0 ug protein; EMSA: 10 mM HEPES pH 7.6, 3 mM MgCl2, 40 mM KCl, 2 mM DTT, 5% glycerol, 0.5% Igepal, 30 min on ice, 6% native PAGE in TBE; recombinant protein; protein details: GST; label: 32P-UTP body label; probe letters rebuilt from the primers and the genome; part of a longer molecule
GST-HuR-RRM1 = GST-HuR-RRM1 (UniProt Q15717); settings: 1.0 ug protein; EMSA: 10 mM HEPES pH 7.6, 3 mM MgCl2, 40 mM KCl, 2 mM DTT, 5% glycerol, 0.5% Igepal, 30 min on ice, 6% native PAGE in TBE; recombinant protein; protein details: GST; label: 32P-UTP body label; probe letters rebuilt from the primers and the genome; part of a longer molecule
GST-HuR-RRM3+hinge = GST-HuR-RRM3+hinge (UniProt Q15717); settings: 1.0 ug protein; EMSA: 10 mM HEPES pH 7.6, 3 mM MgCl2, 40 mM KCl, 2 mM DTT, 5% glycerol, 0.5% Igepal, 30 min on ice, 6% native PAGE in TBE; recombinant protein; protein details: GST; label: 32P-UTP body label; probe letters rebuilt from the primers and the genome; part of a longer molecule

Sequence | binding result (GST-HuR wild type) | binding result (GST-HuR-RRM2+hinge) | binding result (GST-HuR wild type; strongest binding, non-denatured RNA) | binding result (GST-HuR-RRM2) | binding result (GST-HuR-RRM1) | binding result (GST-HuR-RRM3+hinge)
CUUUUGUCUGUCCGCCGAGCACCCCACUUCACCCCAUUGGACCGCGCGGCCGCCGCUAGAGCUCUGCGCCUGCGCACGCACCGGGCCGGGGACUGGGUGGCCUGGUGUGUGGGCGCGGCAGGGCGCAGGCGCAGGCGCAGUGUGCGUCCGC [caspase-2 5'UTR F1] | no binding |  |  |  |  | 
GGGCGCAGGCGCAGGCGCAGUGUGCGUCCGCGUCUGAGGGGAGGGAUGUGGGGGAAGCGACGGCCCCCGGUUUGUUUGGGCUGUGGGCGGUGCGCAGCGGAGAGCCCGGGAAAAGCGGGAA [caspase-2 5'UTR F2] |  | binds | binds | no binding | no binding | binds more weakly
